Test results reported in patent US6635440.
For part of these data: A negative result means that nothing was seen under these conditions. For part of these data: Protein sequences can lack the tags named with them. For part of these data: Construct, isoform or probe ends are uncertain for at least one entry. For part of these data: At least one result comes from cells or an extract, where the contact may be indirect. For part of these data: The comparison behind a weaker result is the experiment's own reference, which may not be listed here.

Protein sequences, listed by entry. Tags and fused reporters are not part of them. Lines headed by an entry give the natural chain unless they say otherwise; changes in a name come on top. Residues count along the entry.
UniProt P09012, 2-282: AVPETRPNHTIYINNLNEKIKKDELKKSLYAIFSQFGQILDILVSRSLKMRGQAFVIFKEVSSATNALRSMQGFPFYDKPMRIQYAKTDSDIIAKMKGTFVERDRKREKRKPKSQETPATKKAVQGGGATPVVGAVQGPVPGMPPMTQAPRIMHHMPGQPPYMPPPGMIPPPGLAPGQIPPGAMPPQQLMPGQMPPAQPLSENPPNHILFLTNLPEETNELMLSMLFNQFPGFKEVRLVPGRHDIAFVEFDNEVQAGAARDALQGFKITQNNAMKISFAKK

How the values were obtained:
[1] = molecular target: T1, MS2 coat protein (Bacteriophage MS2) (UniProt P03612); assay: binding assay; conditions: CITED literature affinity range, protein in cells, protein details: expressed from YCpCP in S. cerevisiae RS453
T1 sequence (looked up, limits assumed): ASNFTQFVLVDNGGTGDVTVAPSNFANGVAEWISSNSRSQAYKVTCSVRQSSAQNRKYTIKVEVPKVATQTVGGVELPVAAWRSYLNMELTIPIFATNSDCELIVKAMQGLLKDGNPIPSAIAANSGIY

[2] = molecular target: T2, IRP-1 (iron regulatory protein 1) (UniProt P21399); assay: activity in cells
T2 sequence (looked up, limits assumed): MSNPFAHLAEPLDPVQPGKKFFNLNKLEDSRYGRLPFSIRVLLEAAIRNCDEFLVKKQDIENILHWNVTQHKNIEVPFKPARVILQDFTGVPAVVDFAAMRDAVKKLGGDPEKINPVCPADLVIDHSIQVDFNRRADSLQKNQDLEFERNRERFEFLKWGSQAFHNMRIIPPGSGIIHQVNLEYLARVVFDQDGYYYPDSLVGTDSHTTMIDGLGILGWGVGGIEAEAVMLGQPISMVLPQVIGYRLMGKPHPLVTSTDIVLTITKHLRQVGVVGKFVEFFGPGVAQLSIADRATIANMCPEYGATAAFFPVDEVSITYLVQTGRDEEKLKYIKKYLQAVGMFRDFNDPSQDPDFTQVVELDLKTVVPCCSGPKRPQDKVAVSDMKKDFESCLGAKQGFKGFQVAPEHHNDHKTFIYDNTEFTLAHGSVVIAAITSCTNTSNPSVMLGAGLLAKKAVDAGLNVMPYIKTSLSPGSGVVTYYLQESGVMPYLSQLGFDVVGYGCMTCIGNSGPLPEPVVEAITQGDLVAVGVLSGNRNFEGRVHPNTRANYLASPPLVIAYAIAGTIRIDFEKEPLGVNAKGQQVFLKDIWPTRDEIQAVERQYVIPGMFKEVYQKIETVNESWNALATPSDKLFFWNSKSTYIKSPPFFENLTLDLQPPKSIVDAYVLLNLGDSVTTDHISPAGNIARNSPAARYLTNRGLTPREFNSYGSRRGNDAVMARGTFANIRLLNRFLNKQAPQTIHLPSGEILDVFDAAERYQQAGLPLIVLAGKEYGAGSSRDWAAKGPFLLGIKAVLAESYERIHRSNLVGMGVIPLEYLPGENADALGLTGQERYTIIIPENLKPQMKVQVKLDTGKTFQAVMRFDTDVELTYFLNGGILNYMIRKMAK

U1A spliceosomal protein [3] = molecular target: U1A spliceosomal protein (UniProt P09012); assay: binding assay; conditions: CITED literature affinity range; protein in cells; protein details: expressed from YCpU1A in S. cerevisiae RS453
U1A spliceosomal protein [4] = molecular target: U1A spliceosomal protein (UniProt P09012); assay: activity in cells; conditions: no GFP repression
[5] = molecular target: T2, IRP-1 (iron regulatory protein 1); assay: binding assay; conditions: CITED literature affinity range; protein in cells; protein details: expressed from YCpIRP-1 in S. cerevisiae RS453

AAUUAUCUACUUAAGGACCAUAAGGCCUUAAGAACACAAAACUCGAGAACAUAUUUUUAAUAUUAUG [MSA GFP 5'UTR]
binding result ([1]; printed mM but text p114 says micromolar range, variant of MSC GFP 5'UTR): binds more weakly

AAUUAUCUACUUAAGCUUCAAAGUGCUUGAACUUAAGAACACAAAACUCGAGAACAUAUUUUUAAUAUUAUG [IREmt GFP 5'UTR]
functional effect ([2]; mutant site, no GFP repression, protein details: expressed from YCpIRP-1 in S. cerevisiae RS453, variant of IREwt GFP 5'UTR): not active

AAUUAUCUACUUAAGCGAUUGCACUCCCGCUUAAGAACACAAAACUCGAGAACAUAUUUUUAAUAUUAUG [U1Awt (U1 snRNA loop 2) GFP 5'UTR]
binding result (U1A spliceosomal protein [3]): binds
functional effect ([2]; non-cognate protein, no GFP repression, protein details: expressed from YCpIRP-1 in S. cerevisiae RS453): not active

AAUUAUCUACUUAAGCGAUUCAUCUCCCGCUUAAGAACACAAAACUCGAGAACAUAUUUUUAAUAUUAUG [U1Amt GFP 5'UTR]
functional effect (U1A spliceosomal protein [4]; mutant site, protein details: expressed from YCpU1A in S. cerevisiae RS453, variant of U1Awt (U1 snRNA loop 2) GFP 5'UTR): not active

AAUUAUCUACUUAAGCUUCAACAGUGCUUGAACUUAAGAACACAAAACUCGAGAACAUAUUUUUAAUAUUAUG [IREwt GFP 5'UTR]
binding result [5]: binds
functional effect ([2]; GFP repression in yeast, galactose vs glucose, protein details: expressed from YCpIRP-1 in S. cerevisiae RS453): active
functional effect (U1A spliceosomal protein [4]; non-cognate protein, protein details: expressed from YCpU1A in S. cerevisiae RS453): not active

AAUUAUCUACUUAAGGACCAUCAGGCCUUAAGAACACAAAACUCGAGAACAUAUUUUUAAUAUUAUG [MSC GFP 5'UTR]
binding result [1]: binds
